Data reported in US20130017251A1 (J DAVID GLADSTONE INSTITUTES, published 2013).
No constants are given. Whether binding was seen depends on the method and setting. Some binding calls cover weakened binding; strength is not graded here.

Protein sequences, listed by entry. Tags and fused reporters are not part of them. Residues count along the entry.
UniProt P02649, residues 19-317: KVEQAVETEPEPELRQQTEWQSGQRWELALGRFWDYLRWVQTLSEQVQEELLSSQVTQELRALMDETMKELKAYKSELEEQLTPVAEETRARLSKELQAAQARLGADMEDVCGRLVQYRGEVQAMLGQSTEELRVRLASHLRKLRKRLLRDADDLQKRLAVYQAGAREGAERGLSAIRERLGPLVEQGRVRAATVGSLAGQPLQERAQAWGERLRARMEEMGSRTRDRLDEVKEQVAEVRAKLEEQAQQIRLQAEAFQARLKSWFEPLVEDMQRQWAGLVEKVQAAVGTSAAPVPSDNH

Tests used:
[1] = target: apoE in human brain sections (AD cases and controls) (human) (UniProt P02649); test: immunofluorescence staining of human brain sections
[2] = target: apoE in human brain sections (AD cases and controls) (human) (UniProt P02649); test: double immunofluorescence staining of human AD brain sections

binding [1]: binds
binding [2]: binds
B1: apoE-specific monoclonal antibody 3H1 (antibody, V domains shown)
VH: EVQLVESGGGLVKPGGSLKLSCAASGFTFSSYAMSWVRQTPEKRLEWVATISSGGSYTYYPDSVKGRFTISRDNAKNTLYLQMSSLRSEDTAMYYCARQFYYYGGSYDYFDYWGQGTTLTVS
VL: DIVLTQSPATLSVTPGDSVSLACRASQSISNNLHWYQQKSHESPRLLIKYAYQSISGIPSRFSGSGSGTDFTLSINSVETEDFGMYFCQQSNSWPLTFGVGTKLEIKR
notes: Mouse monoclonal IgG (detected with anti-mouse IgG; used as purified 3H1 IgG); also called 3H1 IgG; purified 3H1 IgG
